Measurements reported in PMC3713010.
Construct, isoform or probe ends are uncertain for at least one entry. For some of these results: At least one verdict was read from the data and is not stated in words by the source. For some of these results: The direction of at least one scale is not stated here. For some of these results: Where a protein sequence is shown, tags need not be part of it.

The chains behind the UniProt entries cited, without tags or fusion partners. Where a name states a change or a piece, a line headed by the entry shows the natural chain unless it says otherwise. Residues count along the entry.
UniProt P48432: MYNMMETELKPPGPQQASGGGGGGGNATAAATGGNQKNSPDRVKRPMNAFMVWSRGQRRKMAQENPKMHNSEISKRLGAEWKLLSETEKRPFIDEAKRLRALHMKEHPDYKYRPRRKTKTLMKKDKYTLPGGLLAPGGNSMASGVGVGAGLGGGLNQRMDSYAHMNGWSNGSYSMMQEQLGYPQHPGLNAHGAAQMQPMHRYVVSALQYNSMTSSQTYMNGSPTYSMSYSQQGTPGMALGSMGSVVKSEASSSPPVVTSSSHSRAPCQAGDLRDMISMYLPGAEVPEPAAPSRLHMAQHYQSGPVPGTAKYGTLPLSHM
UniProt P63015, 190-289: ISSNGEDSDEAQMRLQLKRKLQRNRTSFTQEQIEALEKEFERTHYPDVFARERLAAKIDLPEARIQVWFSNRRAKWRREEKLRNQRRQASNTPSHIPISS

Assays:
Assay in all cases: EMSA
Sox2 (Mus musculus (B6)) = Sox2 (Mus musculus (B6)) (UniProt P48432); conditions: EMSA: 20 ng GST-fusion protein, 20 mM HEPES pH 7.8, 45 mM KCl, 10 mM NaCl, 1 mM EDTA, 1 mM DTT, 10% glycerol, 0.2 ug/uL BSA, 0.1% NP-40, 50 ng poly-dIdC; recombinant protein; residues 1-319; protein details: GST (N-terminal, pGEX-6P-1); label: 32P
[1] = biological target: Pax6 DNA-binding domain (BD-Pax6) (Mus musculus (B6)) (UniProt P63015); conditions: EMSA: 20 ng GST-fusion protein, 20 mM HEPES pH 7.8, 45 mM KCl, 10 mM NaCl, 1 mM EDTA, 1 mM DTT, 10% glycerol, 0.2 ug/uL BSA, 0.1% NP-40, 50 ng poly-dIdC; recombinant protein; protein details: GST (N-terminal, pGEX-6P-1); label: 32P
[2] = biological target: T1, Brn2 DNA-binding domain (BD-Brn2) (Mus musculus (B6)) (UniProt P31360); conditions: EMSA: 20 ng GST-fusion protein, 20 mM HEPES pH 7.8, 45 mM KCl, 10 mM NaCl, 1 mM EDTA, 1 mM DTT, 10% glycerol, 0.2 ug/uL BSA, 0.1% NP-40, 50 ng poly-dIdC; recombinant protein; protein details: GST (N-terminal, pGEX-6P-1); label: 32P
T1 sequence (looked up, limits assumed): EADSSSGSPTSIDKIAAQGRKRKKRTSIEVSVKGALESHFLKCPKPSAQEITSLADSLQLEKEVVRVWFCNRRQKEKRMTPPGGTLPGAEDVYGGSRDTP

Sequence: GGGAAATATTCATTGTTGTTGCTCACCTACCATGGA (double strand) [Sox2-Pax6 consensus probe]
- binding result (Sox2 (Mus musculus (B6))): binds
- binding signal (fold of positive control) [1]: 1

Sequence: GGGTAGTGTGGACAAAAGGCAATAATTAGCATGAGAATC (double strand) [Sox2-Brn2 consensus probe]
- binding result (Sox2 (Mus musculus (B6))): binds
- binding signal (fold of positive control) [2]: 1
